Laboratory results: PubChem BioAssay AID1259308 (NCATS, 2017)

Assay: 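Candidate targets for better recombinant protein yield in mammalian cells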 (primary screen)
Cells: human HEK293 embryonic kidney cells stably expressing firefly luciferase (HEK-CMV-Luc2-Hygro)
Reagents: single siRNA against human genes, 0.8 pmol siRNA per well
Duration: 72 h
Measured: 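Reporter luminescence and viable-cell signal on separate replicate plates, given as percent of non-targeting control and median/MAD z-scores, plus per-cell luciferase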
Scale: total luciferase, z-score and total luciferase, % of control: higher = more reporter protein produced; luciferase per cell, z-score: higher = more reporter output per viable cell
Rule for the call: 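Active when the median/MAD z-score for overall luciferase is greater than 3; a gene was taken forward for validation with new siRNAs if at least two of its three siRNAs passed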
Calls: active = raised luciferase; inactive = no rise
Shown is one part, drawn at random, of about 59,000 reagents tested. In the full data, about 1,510 (2.6%) got an active call. 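Calls use total luciferase alone and ignore viability, so some active siRNAs may act by altering cell number.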 A number with no mark means an inactive call. Reagents against one gene are numbered here. Not all columns of the deposit are shown. Reagent sequences are not shown.

| gene | reagent no. | total luciferase, z-score | total luciferase, % of control | luciferase per cell, z-score |
| --- | --- | --- | --- | --- |
| HYAL4 (hyaluronidase 4) | 1 | -0.671 | 68.5 | -0.787 |
| HYAL4 (hyaluronidase 4) | 2 | 0.0314 | 82.5 | -0.298 |
| HYAL4 (hyaluronidase 4) | 3 | 0.638 | 94.6 | 0.384 |
| NOPCHAP1 (NOP protein chaperone 1) | 1 | -0.874 | 64.5 | -0.941 |
| NOPCHAP1 (NOP protein chaperone 1) | 2 | -0.905 | 63.9 | -0.448 |
| NOPCHAP1 (NOP protein chaperone 1) | 3 | -1.27 | 56.5 | -0.743 |
| GPR15 (G protein-coupled receptor 15) | 1 | 1.01 | 102 | 2.05 |
| GPR15 (G protein-coupled receptor 15) | 2 | 0.252 | 86.9 | 0.192 |
| GPR15 (G protein-coupled receptor 15) | 3 | 0.154 | 85 | -0.568 |
| DAW1 (dynein assembly factor with WD repeats 1) | 1 | 2.06 | 123 | 1.1 |
| DAW1 (dynein assembly factor with WD repeats 1) | 2 | 2.51 | 132 | 1.83 |
| DAW1 (dynein assembly factor with WD repeats 1) | 3 | -0.244 | 77 | 0.233 |
| NRGN (neurogranin) | 1 | 0.685 | 95.5 | 1.89 |
| NRGN (neurogranin) | 2 | 0.325 | 88.3 | 0.689 |
| NRGN (neurogranin) | 3 | -0.512 | 71.7 | -0.43 |
| FOXD4L1 (forkhead box D4 like 1) | 1 | -0.5 | 71.9 | -0.525 |
| FOXD4L1 (forkhead box D4 like 1) | 2 | -0.528 | 71.4 | -0.497 |
| FOXD4L1 (forkhead box D4 like 1) | 3 | 0.849 | 98.8 | 0.53 |
| RPAIN (RPA interacting protein) | 1 | 2.64 | 134 | 1.79 |
| RPAIN (RPA interacting protein) | 2 | 0.776 | 97.3 | -0.202 |
| RPAIN (RPA interacting protein) | 3 | -0.402 | 73.9 | -0.224 |
| BRI3BP (BRI3 binding protein) | 1 | -0.195 | 78 | 0.856 |
| BRI3BP (BRI3 binding protein) | 2 | 3.03 (active) | 142 | 1.95 |
| BRI3BP (BRI3 binding protein) | 3 | -0.619 | 69.6 | -0.654 |
| SMARCC1 (SWI/SNF related BAF chromatin remodeling complex subunit C1) | 1 | -0.358 | 74.8 | -0.283 |
| SMARCC1 (SWI/SNF related BAF chromatin remodeling complex subunit C1) | 2 | -0.441 | 73.1 | -0.0532 |
| SMARCC1 (SWI/SNF related BAF chromatin remodeling complex subunit C1) | 3 | -1.1 | 60 | -1.02 |
| DPPA4 (developmental pluripotency associated 4) | 1 | 1.55 | 113 | 1.5 |
| DPPA4 (developmental pluripotency associated 4) | 2 | -1.61 | 49.8 | -0.61 |
| DPPA4 (developmental pluripotency associated 4) | 3 | -0.617 | 69.6 | -0.819 |
| ARFGEF1 (ARF guanine nucleotide exchange factor 1) | 1 | 1.63 | 114 | 0.816 |
| ARFGEF1 (ARF guanine nucleotide exchange factor 1) | 2 | 0.143 | 84.7 | -0.153 |
| ARFGEF1 (ARF guanine nucleotide exchange factor 1) | 3 | -1 | 61.9 | -0.081 |
| FGGY (FGGY carbohydrate kinase domain containing) | 1 | 0.514 | 92.1 | 0.349 |
| FGGY (FGGY carbohydrate kinase domain containing) | 2 | 1.47 | 111 | 0.689 |
| FGGY (FGGY carbohydrate kinase domain containing) | 3 | -0.736 | 67.3 | -0.849 |
| FAM114A2 (family with sequence similarity 114 member A2) | 1 | 1.74 | 117 | 1.37 |
| FAM114A2 (family with sequence similarity 114 member A2) | 2 | 1.59 | 114 | 1.48 |
| FAM114A2 (family with sequence similarity 114 member A2) | 3 | 0.0466 | 82.8 | 0.627 |
| MYD88 (MYD88 innate immune signal transduction adaptor) | 1 | 2.32 | 128 | 1.7 |
| MYD88 (MYD88 innate immune signal transduction adaptor) | 2 | -0.501 | 71.9 | -0.399 |
| MYD88 (MYD88 innate immune signal transduction adaptor) | 3 | -0.841 | 65.2 | 0.19 |
| NMD3 (NMD3 ribosome export adaptor) | 1 | -1.22 | 57.7 | -1.77 |
| NMD3 (NMD3 ribosome export adaptor) | 2 | -0.168 | 78.6 | 0.081 |
| NMD3 (NMD3 ribosome export adaptor) | 3 | -0.183 | 78.2 | -0.792 |
| ARHGEF40 (Rho guanine nucleotide exchange factor 40) | 1 | 1.57 | 113 | 1.37 |
| ARHGEF40 (Rho guanine nucleotide exchange factor 40) | 2 | -1.22 | 57.6 | -1.21 |
| ARHGEF40 (Rho guanine nucleotide exchange factor 40) | 3 | 0.535 | 92.5 | -0.22 |
| OR52N2 (olfactory receptor family 52 subfamily N member 2) | 1 | -1.03 | 61.5 | -0.32 |
| OR52N2 (olfactory receptor family 52 subfamily N member 2) | 2 | -0.941 | 63.2 | -0.0229 |
| OR52N2 (olfactory receptor family 52 subfamily N member 2) | 3 | -0.151 | 78.9 | -0.642 |
| ST8SIA3 (ST8 alpha-N-acetyl-neuraminide alpha-2,8-sialyltransferase 3) | 1 | 1.46 | 111 | 1.17 |
| ST8SIA3 (ST8 alpha-N-acetyl-neuraminide alpha-2,8-sialyltransferase 3) | 2 | 1.54 | 113 | 1.2 |
| ST8SIA3 (ST8 alpha-N-acetyl-neuraminide alpha-2,8-sialyltransferase 3) | 3 | 0.781 | 97.4 | 0.237 |
| LCN6 (lipocalin 6) | 1 | -0.177 | 78.4 | -0.502 |
| LCN6 (lipocalin 6) | 2 | -0.602 | 69.9 | -0.698 |
| LCN6 (lipocalin 6) | 3 | -0.474 | 72.5 | -0.479 |
| NDUFAF5 (NADH:ubiquinone oxidoreductase complex assembly factor 5) | 1 | 0.365 | 89.1 | -0.671 |
| NDUFAF5 (NADH:ubiquinone oxidoreductase complex assembly factor 5) | 2 | 1.23 | 106 | 0.595 |
| NDUFAF5 (NADH:ubiquinone oxidoreductase complex assembly factor 5) | 3 | -0.0498 | 80.9 | -0.835 |
| PNMA6B (PNMA family member 6B (pseudogene)) | 1 | -1.19 | 58.2 | -0.608 |
| PNMA6B (PNMA family member 6B (pseudogene)) | 2 | -0.115 | 79.6 | -0.276 |
| PNMA6B (PNMA family member 6B (pseudogene)) | 3 | -0.638 | 69.2 | -0.869 |
| SCHIP1 (schwannomin interacting protein 1) | 1 | 0.91 | 100 | 0.0405 |
| SCHIP1 (schwannomin interacting protein 1) | 2 | 3.47 (active) | 151 | 2.24 |
| SCHIP1 (schwannomin interacting protein 1) | 3 | 0.988 | 102 | 0.311 |
| RXFP4 (relaxin family peptide/INSL5 receptor 4) | 1 | 1.39 | 109 | 1.44 |
| RXFP4 (relaxin family peptide/INSL5 receptor 4) | 2 | 0.338 | 88.6 | -0.125 |
| RXFP4 (relaxin family peptide/INSL5 receptor 4) | 3 | -1.36 | 54.9 | -1.06 |
| TSPAN8 (tetraspanin 8) | 1 | -1.27 | 56.7 | -1.47 |
| TSPAN8 (tetraspanin 8) | 2 | -0.0623 | 80.6 | 0.342 |
| TSPAN8 (tetraspanin 8) | 3 | -0.647 | 69 | -0.524 |
| CALM3 (calmodulin 3) | 1 | 1.23 | 106 | 1.1 |
| CALM3 (calmodulin 3) | 2 | 0.877 | 99.3 | 0.683 |
| CALM3 (calmodulin 3) | 3 | 1.21 | 106 | 0.797 |

Taken from above.
FAM114A2 (family with sequence similarity 114 member A2) #3, total luciferase, % of control: 82.8
Under “total luciferase, z-score”, NDUFAF5 (NADH:ubiquinone oxidoreductase complex assembly factor 5) #1 has 0.365
Entry for PNMA6B (PNMA family member 6B (pseudogene)) #3 in “total luciferase, z-score”: -0.638
FGGY (FGGY carbohydrate kinase domain containing) #2, total luciferase, % of control → 111
Under “total luciferase, z-score”, FOXD4L1 (forkhead box D4 like 1) #3 reads 0.849
Under “total luciferase, z-score”, MYD88 (MYD88 innate immune signal transduction adaptor) #1 reads 2.32
